Reference: PubChem BioAssay AID2685 (National Center for Advancing Translational Sciences (NCATS), 2010)
This is one part of the list. These are further read-outs of the screen, such as a control signal, another cell line or another target. No call is given for them. The list favours compounds with an active or inconclusive main result. Words in brackets tell the shape of the fitted curve; partial curves, single points and poor fits give uncertain potencies.

Test: qHTS Assay for Lipid Storage Modulators in Drosophila S3 Cells;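 as to cell number change: cells counted by Cell Tracker Red CMTPX staining in the red channel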
Details: BODIPY lipid droplet fluorescence, 18-24 h; for cell number change: measured here: cell count max response, cells fed with added oleic acid
How it was run: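 Drosophila S3 cells got compounds at several concentrations plus oleic acid (400 uM solution). Laser-scanning cytometry with 488 nm excitation read lipid droplets at 500-530 nm and cells at 575-640 nm. Percent activity was relative to 20 uM Triacsin C.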

[1] = measured here: lipid fluorescence (Fed channel) AC50, cells fed with added oleic acid
[2] = measured here: cell number channel AC50, cells fed with added oleic acid

Row | Structure (SMILES) | cell number change | AC50 [1] | AC50 [2]
1 | COc1ccc(/C=C2\SC(=O)N(CCc3nnc(N)s3)C2=O)cc1 | 17.5% | 0.461 µM [rising, full curve, poor fit] | –
2 | Oc1ccc(-c2nccc(-c3ccc(F)cc3)n2)cc1 | -17.5% | 29.1 µM [falling, single point] | –
3 | COc1ccc(C(C#N)c2ccc(=O)[nH]n2)cc1 (stereo unspecified) | 9.55% | 0.092 µM [rising, full curve, poor fit] | –
4 | O=C(CSc1ccccc1)NCCc1ccccc1 | 0.647% | – | 5.8 µM [rising, partial curve]
5 | O=C(COc1ccc(S(=O)(=O)N2CCOCC2)cc1Cl)NCC1CCCO1 (stereo unspecified) | 16% | – | –
6 | O=C(Nc1ccc2c(c1)OCO2)c1noc2c1CCCCC2 | -7.43% | 16.4 µM [rising, single point] | –
7 | CSc1ccccc1NC(=O)c1cccs1 | -31.5% | 20.6 µM [falling, single point] | 32.6 µM [falling, single point]
8 | COC(=O)C1C(=O)C2=C(CC1C)NC(C)=C(C(=O)OC1CCCC1)C2c1ccc(N(C)C)cc1 (stereo unspecified) | -34.9% | – | 9.2 µM [falling, partial curve]
9 | Cc1cccc2c(N=Nc3ccc(S(=O)(=O)Nc4cccc(Cl)c4)cc3[N+](=O)[O-])c(O)[nH]c12 | 0.955% | 29.1 µM [falling, single point] | –
10 | CSc1cccc(N2CC(C(=O)Nc3cccc(S(=O)(=O)N4CCCC4)c3)CC2=O)c1 (stereo unspecified) | – | – | 6.51 µM [rising, single point]
11 | CC(=O)CSc1nnc(-c2ccncc2)n1C | -103% | 18.4 µM [falling, partial curve] | 7.31 µM [falling, partial curve]
12 | COc1ccc(CC(=O)Nc2sc3c(c2C(N)=O)CCCC3)cc1OC | 4.17% | – | –
13 | COC(=O)c1cccc(N(C(=O)c2ccco2)C(C(=O)NC2CCCC2)c2ccc(N3CCOCC3)cc2)c1 (stereo unspecified) | 15.8% | – | 0.259 µM [rising, partial curve, poor fit]
14 | O=C(COC(=O)Cc1cccc(C(F)(F)F)c1)NC1CC1 | – | – | 0.651 µM [rising, full curve, poor fit]
15 | O=C(NCc1ccc(F)cc1)c1cccc2c1C(=O)N(Cc1cccnc1)C2 | -34.5% | 29.1 µM [falling, single point] | 8.2 µM [falling, partial curve]
16 | COC(=O)Cn1cc(C(=O)OC)c2ccccc21 | – | 23.1 µM [falling, partial curve] | 0.206 µM [falling, full curve, poor fit]
17 | CCCN(Cc1ccccc1)C(=S)Nc1ccc(OCC)cc1 | 60.2% | 16.4 µM [rising, partial curve] | 8.2 µM [rising, partial curve]
18 | CNc1ccccc1C(C)(C)c1cn(-c2ccc([N+](=O)[O-])cc2)nn1 | -16.5% | 3.66 µM [falling, single point] | –
19 | COc1ccc(S(=O)(=O)N2CCCN(CC(=O)Nc3ccc4c(c3)OCO4)CC2)cc1 | 13.5% | 6.51 µM [falling, single point] | –

Compounds 11–13 of the list above:
Row | Structure (SMILES) | cell number change | AC50 [1] | AC50 [2]
11 | CC(=O)CSc1nnc(-c2ccncc2)n1C | -103% | 18.4 µM [falling, partial curve] | 7.31 µM [falling, partial curve]
12 | COc1ccc(CC(=O)Nc2sc3c(c2C(N)=O)CCCC3)cc1OC | 4.17% | – | –
13 | COC(=O)c1cccc(N(C(=O)c2ccco2)C(C(=O)NC2CCCC2)c2ccc(N3CCOCC3)cc2)c1 (stereo unspecified) | 15.8% | – | 0.259 µM [rising, partial curve, poor fit]

Additional results follow:

Row | Structure (SMILES) | cell number change | AC50 [1] | AC50 [2]
20 | CN(CC(=O)Nc1ccc(F)c(F)c1F)C(=O)CCc1nc2sc3c(c2c(=O)[nH]1)CCCC3 | -0.838% | 4.61 µM [rising, partial curve, poor fit] | –
21 | Cc1noc(NS(=O)(=O)c2ccc(NC(=O)c3cnc4scc(C)n4c3=O)cc2)c1C | – | – | 0.651 µM [rising, single point]
22 | Cn1ccnc1SCc1cc(=O)[nH]c2ccccc12 | – | 16.4 µM [rising, partial curve] | –
23 | O=C(NC1CCCC1)c1cc(S(=O)(=O)N2CCOCC2)c(Cl)cc1Cl | 78.8% | – | 16.4 µM [rising, single point]
24 | O=C(c1cccc(Cl)c1)N1CCN(c2ccc(N3CCOCC3)nn2)CC1 | 11.5% | – | –
25 | COc1ccc(CNC(=O)C2CCN(C(=O)c3csc(Nc4ccc(C)cc4)n3)CC2)cc1 | -1.39% | 4.11 µM [rising, full curve] | –
26 | CCCc1cc(=O)[nH]c2nnc(SCC(=O)Nc3nccs3)n12 | -50.5% | 29.1 µM [falling, partial curve] | 5.8 µM [falling, partial curve, poor fit]
27 | CCn1c(SCC(=O)NCc2cccs2)nnc1-c1ccco1 | 4.58% | – | 0.58 µM [falling, single point]
28 | O=C(O)c1cccc(NS(=O)(=O)c2ccc(-c3ccc(S(=O)(=O)Nc4cccc(C(=O)O)c4)cc3)cc2)c1 | -15.9% | – | 0.92 µM [falling, full curve, poor fit]
29 | CCOC(=O)c1c(-c2cccc([N+](=O)[O-])c2)csc1NC(=O)CCCOc1ccccc1 | -20.6% | 0.00461 µM [falling, full curve, poor fit] | –
30 | C#CCOc1c(Cl)cc(/C=N/NC(N)=S)cc1OCC | 39.5% | – | –
31 | COc1ccc(N(C(C)=O)S(=O)(=O)c2cccc3cccnc23)cc1 | -66.7% | 5.8 µM [rising, partial curve] | 1.84 µM [falling, partial curve]
32 | O=C(Cn1nnc(-c2ccccc2)n1)NNC(=O)c1cccc([N+](=O)[O-])c1 | -8.73% | 29.1 µM [rising, single point] | –
33 | Cc1ccccc1OCC(=O)N/N=C/c1cc2ccccc2nc1Cl | 1.87% | 0.58 µM [rising, full curve, poor fit] | –
34 | CCCCNC(=O)C1CCCN(S(=O)(=O)c2ccc(-n3cnnn3)cc2)C1 (stereo unspecified) | 16.3% | – | –
35 | CCCOP(=O)(c1ccc(N(C)C)cc1)C(O)c1cc(OC)c(OC)c(OC)c1 (stereo unspecified) | 28.5% | 14.6 µM [rising, partial curve, poor fit] | –
36 | CCn1c(O)c(/C=C2\C=Nc3ccccc32)sc1=Nc1ccccc1 | -13.1% | 0.058 µM [falling, full curve, poor fit] | –
37 | COc1ccc(CNC(=S)Nc2ccccc2C)cc1 | – | 1.16 µM [rising, partial curve] | 0.13 µM [rising, full curve, poor fit]
